At least one compound was matched to its structure with a doubt left.
System: TERC, dyskerin and fibrosis-associated genes
Test: Effect of inhaled lithium, heatmap FIG. 23
Type: in vivo

**Q.** With `[Li]` [lithium] as the molecule, how does the TERC expression read?
**A.** increase

**Q.** What about the dyskerin expression of the same molecule?
**A.** increase

**Q.** What about the “expression of fibrosis-associated genes” value of the same molecule?
**A.** reduction

From patent US10363263B2, “Anti-aging compositions and methods for using same” (Prescient Pharma LLC, priority 2015, dated 2019)
